# Results as given in ChEMBL document CHEMBL4513136, “CO-ADD screening of CSIC (Spain) compounds”.
# Some of the results follow. Measured potencies and affinities stand elsewhere.
# System: Pseudomonas aeruginosa
# Conditions: Concentration 32 ug.mL-1; ASSAY_TEST Inhibition of Bacterial Growth; detection method Absorption (OD600); MEDIA CAMHB; plate type 384well; NBS; CORNING #3640; time 18 hr
row,SMILES,Inhibition [%]
1,O=C(Cc1cc(O)ccc1O)Nc1ccc(O)cc1O,17.31
2,O=C(Cc1cc(O)ccc1O)Nc1ccc(O)cc1,12.22
3,COc1ccc(OC)c(C(=O)/C=C/c2ccccc2O)c1,5.24
4,O=C(/C=C/c1ccccc1O)c1cc(O)c(O)cc1O,22.81
5,COc1ccccc1/C=C/C(=O)c1cc(OC)c(OC)cc1OC,11.59
6,COc1ccc(OC)c(CC(=O)Nc2cc(OC)ccc2OC)c1,2.74
7,O=C(OCc1ccccc1)N1C(=O)C(c2ccccc2NC(=O)C(F)(F)F)=C(O)C1Cc1ccccc1 (stereo unspecified),7.49
8,COc1ccc(C(=O)/C=C/c2ccc(OC)cc2OC)cc1,1.68
9,COC(=O)c1c(C(Cc2ccccc2)NC(=O)OCc2ccccc2)[nH]c2ccccc12 (stereo unspecified),-3.99
10,COc1ccc(OC)c(C(=O)CCc2ccccc2O)c1,2.84
11,Oc1ccc(-n2cc(-c3cc(O)ccc3O)nn2)cc1,13.95
12,COc1ccc(CN2C(=O)C(C)C2(Cc2cn(C(=O)OC(C)(C)C)c3ccccc23)C(=O)OC(C)(C)C)cc1 (stereo unspecified),9.77
13,O=C(Nc1ccc(O)cc1O)Nc1cc(O)ccc1O,-3.51
14,O=C(Cc1cc(O)ccc1O)Nc1cc(O)ccc1O,11.55
15,Oc1ccc(O)c(-c2cn(-c3ccc(O)c(O)c3)nn2)c1,3.97
16,O=C(CCc1ccc(O)cc1O)c1cc(O)ccc1O,18.43
17,COc1ccc(OC)c(C(=O)CCc2ccc(O)cc2)c1,-0.06
18,COc1ccc(OC)c(NC(=O)Nc2ccc(OC)cc2OC)c1,7.86
19,COc1ccc(OC)c(C(=O)/C=C/c2c[nH]c3ccc(OC)cc23)c1,12.56
20,COc1ccc(NC(=O)Cc2cc(OC)ccc2OC)cc1,11.92
21,CC1C(=O)N(Cc2ccc(OCCN3CCOCC3)cc2)C1(Cc1ccccc1)C(=O)O (stereo unspecified),-0.13
22,COc1ccc(OC)c(-c2cn(-c3ccc(OC)c(OC)c3)nn2)c1,-6.79
23,COC(=O)C1(Cc2ccc(OCc3c(Cl)cccc3Cl)cc2)C(C)C(=O)N1Cc1ccc(OC)cc1 (stereo unspecified),39.73
24,COc1ccc(OC)c(CC(=O)Nc2ccc(OC)cc2OC)c1,13.71
25,COc1ccc(OC)c(C(=O)/C=C/c2ccc(O)cc2)c1,14.08
26,O=C(/C=C/c1c[nH]c2ccc(O)cc12)c1cc(O)ccc1O,12.03

# Retrieved by compound from the entries so far, two records:
row,SMILES,Inhibition [%]
7,O=C(OCc1ccccc1)N1C(=O)C(c2ccccc2NC(=O)C(F)(F)F)=C(O)C1Cc1ccccc1 (stereo unspecified),7.49
25,COc1ccc(OC)c(C(=O)/C=C/c2ccc(O)cc2)c1,14.08
